Experimental data reported in US9580749B2, “Dyes and labeled molecules” (Biotium, Inc., priority 2005, dated 2017).

Tested on: salmon sperm DNA
Experiment: Absorbance and fluorescence emission spectra of dyes without or with DNA in PBS buffer
Assay type: physicochemical
Method: The spectra were normalized to 1 in the absorbance plot. […] The heterodimeric dye AORO-7 comprises a monomeric AO dye and a fluorescent non-nucleic acid rosamine RO dye. Two emission peaks, contributed by AO and RO moieties, respectively, were recorded.

SMILES	fluorescence per acridine monomer when bound to DNA (2 mg/ml salmon sperm DNA, PBS buffer)	background fluorescence and fluorescence upon binding to DNA, relative to monomeric DMAO (FIG. 4, PBS buffer before and after DNA addition)	fluorescence resonance energy transfer (FRET) effect (bound to DNA)
CN(C)c1ccc2cc3ccc(N(C)C)cc3[n+](CCCCCC(=O)NCCCCCNC(=O)CCCCC[n+]3c4cc(N(C)C)ccc4cc4ccc(N(C)C)cc43)c2c1 [AOAO-7]	close to that of DMAO	lower background fluorescence and higher fluorescence upon binding to DNA	
CC1=CC(C)(C)Nc2cc3c(cc21)C(c1ccc(C(=O)NCCCCCC(=O)NCCCCCNC(=O)CCCCC[n+]2c4cc(N(C)C)ccc4cc4ccc(N(C)C)cc42)cc1)=c1cc2c(cc1O3)=NC(C)(C)C=C2C [AORO-7]			negligible
